In the supplement of paper PMC8256030:
Values joined by “and” are separate entries in the source; they are usually repeats but may differ in a detail not shown here. Equal values may be shown once. Where a name gives a salt, the structure may show the parent alone. Some of the results follow. Single values are uncertain here, since repeats match poorly.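 HEK293T cells were given each compound shortly before transfection with a reporter in which red mCherry is followed by the SARS-CoV-2 frameshift element and then GFP in the −1 frame, so GFP appears only after frameshifting.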

What was measured:
[1] = system: SARS-CoV-2 -1 PRF reporter mCherry-FSE-GFP(-1); assay: mCherry (red) intensity as percent of control; higher = higher upstream reporter expression; details: 10 µM; 24 h; HEK293T
[2] = system: SARS-CoV-2 -1 PRF reporter mCherry-FSE-GFP(-1); assay: percent effect, decrease of GFP/mCherry ratio (-1 PRF reporter) relative to controls; higher = stronger frameshift inhibition; details: 10 µM; 24 h; HEK293T

SMILES	mCherry [1]	percent effect [2]
CCOC(=O)Nc1ccc2c(c1)N(C(=O)CCN1CCOCC1)c1ccccc1S2 [moracizine]	108%	-5.36%
CCOC(=O)[C@H](CCc1ccccc1)N[C@H]1CCCN2CCC[C@@H](C(=O)O)N2C1=O [Inhibace]	110%	-1.38%
COc1cc(CNC(=O)CCCC/C=C/C(C)C)ccc1O [capsaicin]	96.1% and 76.5%	1.81% and 13.7%
CNC[C@H](O)[C@@H](O)[C@H](O)[C@H](O)CO [meglumine]	83.8%	-6.77%
Cc1cccc(/C=N/N2CCN(C(c3ccccc3)c3ccccc3)CC2)n1 [ropizine]	68.8%	-4.56%
CN1Cc2c(N)cccc2C(c2ccccc2)C1 (centres undefined)	96.9%	-5.9%
O=C[C@H](O)[C@H]1OC(=O)[C@@H](O)[C@H]1O [glucurolactone]	84.5%	-4.96%
CN1CCC(=C2c3ccccc3CCc3cccnc32)CC1 [azatadine]	108%	2.45%
COC(=O)CCNC(=O)[C@@H]1CSC(C)N1 (some centres undefined) [alonacic]	99.4%	-5.37%
OC[C@@H](O)[C@@H](O)CO	104%	1.45%
CCC(=O)O[C@H](CC(=O)O)C[N+](C)(C)C	111%	-6.29%
CC(C)C[C@H](NC(=O)[C@@H](Cc1c[nH]c2ccccc12)NC(=O)[C@H](Cc1ccc(O)cc1)NC(=O)[C@H](CO)NC(=O)[C@H](Cc1c[nH]c2ccccc12)NC(=O)[C@H](Cc1c[nH]cn1)NC(=O)[C@@H]1CCC(=O)N1)C(=O)N[C@@H](CCCNC(=N)N)C(=O)N1CCC[C@H]1C(=O)NCC(N)=O [Triptorelin]	65.4%	-6.73%
CCN(CC)CC(=O)Oc1ccc(NC(C)=O)cc1 [propacetamol]	100%	-6.61%
COc1ccc2[nH]c([S+]([O-])Cc3ncc(C)c(OC)c3C)nc2n1 (centres undefined) [tenatoprazole]	88.8% and 72.8%	-0.0316% and -0.993%
CC1=C(C/C=C(\C)CCC[C@H](C)CCC[C@H](C)CCCC(C)C)C(=O)c2ccccc2C1=O [Mephyton]	100%	-2.7%
CCCCN1CCC(CNC(=O)c2c3n(c4ccccc24)CCCO3)CC1 [piboserod]	95.8%	-1.93%
CCOC(=O)n1ccn(C)c1=S [carbimazole]	123%	-3.42%
CC1CCC(NC(=O)N(CCCl)N=O)CC1 (centres undefined) [semustine]	100%	0.384%
O=c1ccc2ccccc2o1	112%	-4.27%
CN/C(=N\c1ccc(C2=NNC(=O)CC2C)cc1)NC#N (centres undefined) [Siguazodan]	82.3%	-7.11%
Cc1ccc(C2(O)CCN(CCCC(=O)c3ccc(F)cc3)CC2)cc1 [moperone]	73.1%	1.75%
O=C(O)COc1ccc(C(=O)/C=C/c2ccc(C(=O)O)cc2)cc1 [cinfenoac]	105%	-6.35%
Nc1ccc(C(=O)O)c(O)c1 [4-Aminosalicylic acid]	73.8%	0.0631%
CNCC[C@@H](Oc1ccccc1C)c1ccccc1	91.2%	-0.857%
N=C(N)NC(=N)N1CCOCC1 [moroxydine]	108%	-0.972%
O=C(O)CCC(=O)O [Katasuccin]	129%	-6.43%

SMILES	mCherry [1]	percent effect [2]
CNC(=O)c1c(I)c(NC(C)=O)c(I)c(C(=O)O)c1I [iotalamic acid]	119%	0.834%
Cn1cc([S+](C)[O-])c(=O)c2ccc(F)cc21 (centres undefined) [flosequinan]	107%	-6.63%
CC(=O)Nc1ccc(OCC(O)CNC(C)C)cc1 (centres undefined) [practolol]	103%	-4.14%
Nc1nc(F)nc2c1ncn2[C@@H]1O[C@H](COP(=O)(O)O)[C@@H](O)[C@@H]1O	140%	1.33%
CCN(CC)CCNC(=O)c1cc(Cl)c(N)cc1OC [metoclopramide]	90.1% and 86.4%	-2.15% and -3.89%
O=C([O-])CN(CCN(CC(=O)[O-])CC(=O)[O-])CC(=O)[O-].[Co+2].[Co+2] [Kelocyanor]	76.7%	-0.576%
O=C1[C@H]2CCCC[C@H]2C(=O)N1CCCCN1CCN(c2nsc3ccccc23)CC1 [perospirone]	95.6%	-3.57%
CC[N+](CC)(CC)CCOc1ccc(/C=C/c2ccccc2)cc1 [stilonium iodide]	66.8%	-9.49%
Cc1cc(-n2c(=O)[nH]c(=O)n(C)c2=O)ccc1Oc1ccc(S(=O)(=O)C(F)(F)F)cc1 [ponazuril]	98.5%	3.41%
CCC1=C[C@@H]2CN(C1)Cc1c([nH]c3ccccc13)[C@@](C(=O)OC)(c1cc3c(cc1OC)N(C)[C@H]1[C@@](O)(C(=O)OC)[C@H](OC(C)=O)[C@]4(CC)C=CCN5CC[C@]31[C@@H]54)C2 [Vinorelbine]	23.9%	-4.33%
CCCOc1ccccc1-c1nc2[nH]nnc2c(=O)[nH]1 [Zaprinast]	72.5%	3.5%
C#C[C@]1(O)CC[C@H]2[C@@H]3CCC4=CC(=NO)CC[C@@H]4[C@H]3CC[C@@]21CC (mixture of isomers) [Norelgestromin]	109%	-2.56%
CN1CCN(C2=Nc3ccccc3Oc3ccc(Cl)cc32)CC1 [loxapine]	106%	-3.41%
CCCC(C(=O)OCCN(CC)CC)(c1ccccc1)c1ccccc1	118%	-5.68%
CCC(C)OC(=O)N1CCCCC1CCO (centres undefined) [icaridin]	84%	0.694%
Oc1ccc(CCNCCCCCCNCCc2ccccc2)cc1O [dopexamine]	85%	-6.05%
Cc1ccc(S(=O)(=O)NC(=O)NN2CC3CCCC3C2)cc1 (centres undefined) [Gliclazide]	82.2%	-5.91%
C[N+]1(C)[C@@H]2C[C@@H](OC(=O)C(O)(c3cccs3)c3cccs3)C[C@H]1[C@@H]1O[C@@H]12 [Tiotropium Bromide]	42.9%	-8.36%
CN(CCOP(=O)(O)O)C(=N)N [creatinolfosfate]	114%	-1.37%
N/N=c1\[nH][nH]/c(=N\N)c2ccccc12 [dihydralazine]	149%	-2.37%
O=C(c1ccc2nonc2c1)N1CCCCC1 [farampator]	92.5%	-0.429%
O=C(O)CCn1c2c(c3ccccc31)C[C@H](NS(=O)(=O)c1ccc(F)cc1)CC2 [ramatroban]	71.2%	0.865%
CCC(=O)O[C@H]1[C@H](O[C@@H]2[C@@H](C)[C@H](O[C@H]3C[C@@](C)(OC)[C@@H](O)[C@H](C)O3)[C@@H](C)C(=O)O[C@H](CC)[C@@](C)(O)[C@H](O)[C@@H](C)C(=O)[C@H](C)C[C@@]2(C)O)O[C@H](C)C[C@@H]1N(C)C	118%	1.31%
CNCCC(Oc1ccccc1OC)c1ccccc1 (centres undefined) [nisoxetine]	122%	1.95%
NCC(=O)CCC(=O)O	85.1%	-4.56%
NCCCC[C@H](N)C(=O)O [lysine]	93.2%	0.339%

Structures above with a carbonyl joined to an NH by a bond outside any ring (11):
SMILES	mCherry [1]	percent effect [2]
CCOC(=O)Nc1ccc2c(c1)N(C(=O)CCN1CCOCC1)c1ccccc1S2 [moracizine]	108%	-5.36%
COc1cc(CNC(=O)CCCC/C=C/C(C)C)ccc1O [capsaicin]	96.1% and 76.5%	1.81% and 13.7%
COC(=O)CCNC(=O)[C@@H]1CSC(C)N1 (some centres undefined) [alonacic]	99.4%	-5.37%
CC(C)C[C@H](NC(=O)[C@@H](Cc1c[nH]c2ccccc12)NC(=O)[C@H](Cc1ccc(O)cc1)NC(=O)[C@H](CO)NC(=O)[C@H](Cc1c[nH]c2ccccc12)NC(=O)[C@H](Cc1c[nH]cn1)NC(=O)[C@@H]1CCC(=O)N1)C(=O)N[C@@H](CCCNC(=N)N)C(=O)N1CCC[C@H]1C(=O)NCC(N)=O [Triptorelin]	65.4%	-6.73%
CCN(CC)CC(=O)Oc1ccc(NC(C)=O)cc1 [propacetamol]	100%	-6.61%
CCCCN1CCC(CNC(=O)c2c3n(c4ccccc24)CCCO3)CC1 [piboserod]	95.8%	-1.93%
CC1CCC(NC(=O)N(CCCl)N=O)CC1 (centres undefined) [semustine]	100%	0.384%
CNC(=O)c1c(I)c(NC(C)=O)c(I)c(C(=O)O)c1I [iotalamic acid]	119%	0.834%
CC(=O)Nc1ccc(OCC(O)CNC(C)C)cc1 (centres undefined) [practolol]	103%	-4.14%
CCN(CC)CCNC(=O)c1cc(Cl)c(N)cc1OC [metoclopramide]	90.1% and 86.4%	-2.15% and -3.89%
Cc1ccc(S(=O)(=O)NC(=O)NN2CC3CCCC3C2)cc1 (centres undefined) [Gliclazide]	82.2%	-5.91%

(cont.)

SMILES	mCherry [1]	percent effect [2]
CN1C(C)(C)CCCC1(C)C	89.7%	-0.308%
O=c1[nH]c2ccccc2c2cc(CO)nn12 [pirquinozol]	71.7%	-2.91%
O=C(O)CCCCCCCNC(=O)c1ccccc1O [salcaprozic acid]	75.1%	4.45%
O=C(C[S+]([O-])Cc1ccco1)NC/C=C\COc1cc(CN2CCCCC2)ccn1 (centres undefined) [lafutidine]	95.5%	-1.81%
O=C(N[C@@H](Cc1c[nH]c2ccccc12)C(=O)O)c1ccc(Cl)cc1 [benzotript]	96.7%	-6.31%
CC(=O)N[C@@H](C=O)[C@@H](O)[C@H](O)[C@H](O)CO	105%	-2.81%
CC(C)Nc1nc2cc(Cl)c(Cl)cc2n1[C@H]1O[C@@H](CO)[C@H](O)[C@@H]1O [maribavir]	101%	-2.25%
CCCN(CCC)CCc1cccc2c1CC(=O)N2	96.1%	-3.39%
CCN(CC)CCCN(c1ccccc1)C1Cc2ccccc2C1 [aprindine]	111%	-9.09%
CCCOC(=O)Cn1cc(I)c(=O)c(I)c1 [propyliodone]	87.7%	-4.67%
CN1C(=N)N(c2ccccc2)CC1=O [azolimine]	123%	-0.228%
Cc1ccccc1C(=O)Nc1ccc(C(=O)N2CCCC(O)c3cc(Cl)ccc32)c(C)c1 (centres undefined) [tolvaptan]	114%	-2.57%
Cc1cc(NS(=O)(=O)c2ccc(N)cc2)no1 [sulfamethoxazole]	124%	-9.05%
Clc1cccc(Cl)c1NC1=NCCN1 [Clonidine·HCl]	89.8%	1.91%
CC(C)c1ncc([N+](=O)[O-])n1C [ipronidazole]	85.8%	-1.54%
CCCCC1=NC2(CCCC2)C(=O)N1Cc1ccc(-c2ccccc2-c2nnn[nH]2)cc1 [irbesartan]	102%	0.454%
CO[C@H]1/C=C/O[C@@]2(C)Oc3c(C)c(O)c4c(O)c(c(/C=N/N5CCN(C)CC5)c(O)c4c3C2=O)NC(=O)/C(C)=C\C=C\[C@H](C)[C@H](O)[C@@H](C)[C@@H](O)[C@@H](C)[C@H](OC(C)=O)[C@@H]1C [Rifadin]	110%	3.5%
CCCCC(CC)COC(=O)c1ccccc1O (centres undefined) [octisalate]	112%	-8.32%
CCc1oc2ccccc2c1C(=O)c1ccc(O)cc1 [benzarone]	88.7%	-5.32%
CCOc1nc2cccc(C(=O)OCc3oc(=O)oc3C)c2n1Cc1ccc(-c2ccccc2-c2noc(=O)[nH]2)cc1	120%	-2.24%
CCCCCCCCCCCCOS(=O)(=O)[O-].[Na+] [Sodium lauryl sulfate]	92.2%	-0.215%
CC(=O)N(O)CCCCCNC(=O)CCC(=O)N(O)CCCCCNC(=O)CCC(=O)N(O)CCCCCN [deferoxamine]	109%	-7.29%
CS(=O)(=O)c1ccc(C2=C(c3ccccc3)C(=O)OC2)cc1 [rofecoxib]	102% and 84.8%	1.26% and -2.83%
CNC[C@H](O)c1ccc(O)c(O)c1	110%	-0.807%
Cc1cc(NS(=O)(=O)c2ccc(N)cc2)nc(C)n1 [sulfisomidine]	111%	-3.28%
